Experimental data from paper PMC11033214.
These are yes or no findings as the source states them, for the method shown. In cells and extracts the contact can be indirect. Binding calls can cover weak binding; strength is not graded here.

Tests used:
[1] = target: KREPB4 (B4) R174H, C-terminally 3xV5-tagged (Trypanosoma brucei); test: co-IP; anti-V5 immunoprecipitation from cleared lysate of bloodstream form (BF) T. brucei exclusively expressing V5-tagged B4, two days after repression of the regulatable WT B4 allele; IPP150 (10 mM Tris-HCl pH 8.0, 150 mM NaCl, 1% NP-40) with 1% Triton X-100, 4°C; Western blot with monoclonal antibodies against KREPA1, KREPA2, KREL1, KREPA3
[2] = target: KREPB4 (B4) F207V, C-terminally 3xV5-tagged (Trypanosoma brucei); test: co-IP; anti-V5 immunoprecipitation from cleared lysate of procyclic form (PF) T. brucei exclusively expressing V5-tagged B4, four days after repression of the regulatable WT B4 allele; IPP150 (10 mM Tris-HCl pH 8.0, 150 mM NaCl, 1% NP-40) with 1% Triton X-100, 4°C; Western blot with monoclonal antibodies against KREPA1, KREPA2, KREL1, KREPA3
[3] = target: KREPB4 (B4) K211I, C-terminally 3xV5-tagged (Trypanosoma brucei); test: as above

Measured: binding

B1: KREPA2 (protein, UniProt A0A3L6L0V2 1-587)
chain: MYRRFFRSAAVKHLGTTSAQCLMRATKYPCGAMCRNASSCHPQTLGYQQRFQSTTDKKFHCSVCKKPFRLEMAAKLHLQQAHGGDGSVEAGPGPGVEASSVNVVSTPVPSPISPVERTFVDEEERRPRRMRPTPKPLHQPDRDIPAAAMEEMLGVWDKIGLNRLEGNFVHSTMVMKVFAAPPDVSEIPLYEHVAPEGENPFDSLDHMTTGTVDATYVGHDAFAEVDLVDPFVAAPDQTLNPFRAGKVRNPFTRISPTQREVVKPLQPPQPKEEPLKAPVTPFGQLPMFGQTREPSASFAAAAVSVQAAANPNEVSSPFAAAVSSSPFVGQVASPFAPAQDVAGSPFEASPCAASSPFVTAGGQETSPFAAPSTPASFGQGSLFPPMGTGAPGFTAITETEQRQQELEHGCPTCGKKFSTFEGAAMHSKSKHGIVLESKKVKDRLNRKGVPDLPAYVPSPVDLSSTSPFGTRSAIGASWAETELIPHAQCVSNITIVGRVLDVSQASENVSHVTVFVEGERSGEEETLTLCCFGEVSQKIRGTLKRNATIFASGTLRLHPVYEASNNKYYVSPVVHVSMPTGTLAVIT
binds: all assays above
